The target of this experiment is T1, mouse recombinant SCUBE2 (mouse) (UniProt Q9JJS0).
T1 sequence (looked up): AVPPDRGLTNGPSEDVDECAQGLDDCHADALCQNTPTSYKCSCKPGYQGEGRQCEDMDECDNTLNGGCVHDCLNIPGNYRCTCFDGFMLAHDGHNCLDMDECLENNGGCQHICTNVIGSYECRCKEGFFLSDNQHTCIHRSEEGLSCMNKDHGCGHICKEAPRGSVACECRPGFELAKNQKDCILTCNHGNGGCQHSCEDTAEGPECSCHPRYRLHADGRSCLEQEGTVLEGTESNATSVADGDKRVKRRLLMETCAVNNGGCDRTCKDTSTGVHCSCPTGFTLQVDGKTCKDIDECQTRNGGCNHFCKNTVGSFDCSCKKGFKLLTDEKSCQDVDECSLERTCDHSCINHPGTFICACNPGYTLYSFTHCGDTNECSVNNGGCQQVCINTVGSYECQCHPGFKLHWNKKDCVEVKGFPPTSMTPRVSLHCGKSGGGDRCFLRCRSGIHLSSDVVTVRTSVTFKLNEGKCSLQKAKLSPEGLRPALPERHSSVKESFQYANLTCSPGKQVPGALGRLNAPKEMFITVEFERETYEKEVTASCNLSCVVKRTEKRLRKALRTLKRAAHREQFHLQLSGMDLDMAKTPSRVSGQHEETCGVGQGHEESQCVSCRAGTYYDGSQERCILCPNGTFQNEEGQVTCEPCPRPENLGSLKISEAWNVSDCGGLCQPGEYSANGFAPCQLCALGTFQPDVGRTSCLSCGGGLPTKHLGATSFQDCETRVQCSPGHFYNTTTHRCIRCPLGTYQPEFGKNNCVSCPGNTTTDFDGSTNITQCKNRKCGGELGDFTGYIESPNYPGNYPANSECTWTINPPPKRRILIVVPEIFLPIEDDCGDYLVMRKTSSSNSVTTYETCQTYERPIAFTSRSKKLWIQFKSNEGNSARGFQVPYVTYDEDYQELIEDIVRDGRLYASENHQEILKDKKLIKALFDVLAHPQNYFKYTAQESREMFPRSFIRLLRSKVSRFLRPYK
Kind of experiment: western blot of recombinant protein expressed in HEK-293T cells.

No constants are given. Whether binding was seen depends on the method and setting. Some entries that bind do so weakly or less than the wild type.

This is an account of results in patent US20190127454A1 (ACADEMIA SINICA, published 2019).

B1: anti-SCUBE2 mAb clone SP-B1 (antibody, IgG1, V domains shown)
VH: EVQLQQSGPELVKPGASVKVSCKASGYAFTSYNMYWVKQSHGKSLEWIGYIDPYNGDTNNNQKFKGKATLTVDKSSSTAYMHLNSLTSEDSAVYYCARSYRYLAWFAYWGQGTLVTVSA
VL: DIVMTQSPLSLPVSLGDQASISCRSSQSIVHSNGNTYLEWYLQKPGQSPKLLIYTVSNRFSGVPDRFSGSGSGTDFTLRISRVEAEDLGVYYCFQGSHIPYTFGGGTKLELK
notes: also called SP.B1 mAb
On to B1, for which the binding result is given as “binds”.
